According to PMC6422069:
Results are given in words; binding and its absence hold for the method and conditions named. In cells and extracts the contact can be indirect.

What was measured:
Assay in all cases: co-IP; LUMIER assay: protein A fusion (bait) and Renilla luciferase fusion (prey) co-transfected in HEK-293T cells, lysed after 24 h (PBS pH 7.4, 1% Triton X-100, 0.1% BSA, 1 mM DTT, benzonase), bait precipitated on anti-protein A magnetic beads for 90 min at 4 °C, six washes, bound luciferase activity read; robust Z-scores; in quadruplicate
[1] = target: T1, MNV NS7 (murine norovirus MNV-1 (strain CW1)) (UniProt Q80J95)
T1 sequence: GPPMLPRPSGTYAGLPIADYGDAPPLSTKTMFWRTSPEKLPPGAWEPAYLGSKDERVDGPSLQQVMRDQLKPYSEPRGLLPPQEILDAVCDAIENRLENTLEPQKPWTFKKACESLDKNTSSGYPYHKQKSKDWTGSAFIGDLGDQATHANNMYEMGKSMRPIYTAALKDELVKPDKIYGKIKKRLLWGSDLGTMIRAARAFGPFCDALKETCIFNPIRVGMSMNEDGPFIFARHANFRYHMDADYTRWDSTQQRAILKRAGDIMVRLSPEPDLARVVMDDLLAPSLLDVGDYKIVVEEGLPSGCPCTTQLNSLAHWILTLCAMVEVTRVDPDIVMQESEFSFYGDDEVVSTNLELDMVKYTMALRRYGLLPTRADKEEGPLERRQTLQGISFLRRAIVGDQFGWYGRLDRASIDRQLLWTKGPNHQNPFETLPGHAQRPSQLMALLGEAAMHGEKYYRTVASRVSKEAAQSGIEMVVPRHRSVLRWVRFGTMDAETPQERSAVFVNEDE

[2] = target: T2, MNV NS1/2 (murine norovirus MNV-1 (strain CW1)) (UniProt Q80J95)
T2 sequence: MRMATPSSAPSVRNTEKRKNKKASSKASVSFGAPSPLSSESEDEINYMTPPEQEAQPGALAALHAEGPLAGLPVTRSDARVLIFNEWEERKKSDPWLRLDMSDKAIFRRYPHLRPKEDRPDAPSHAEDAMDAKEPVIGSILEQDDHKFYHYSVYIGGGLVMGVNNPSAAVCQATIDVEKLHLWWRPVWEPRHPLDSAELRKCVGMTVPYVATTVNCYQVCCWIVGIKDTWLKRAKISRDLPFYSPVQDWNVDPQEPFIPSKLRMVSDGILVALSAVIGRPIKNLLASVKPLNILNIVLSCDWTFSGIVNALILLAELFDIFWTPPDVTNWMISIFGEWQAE

[3] = target: T3, MNV NS4 (murine norovirus MNV-1 (strain CW1)) (UniProt Q80J95)
T3 sequence: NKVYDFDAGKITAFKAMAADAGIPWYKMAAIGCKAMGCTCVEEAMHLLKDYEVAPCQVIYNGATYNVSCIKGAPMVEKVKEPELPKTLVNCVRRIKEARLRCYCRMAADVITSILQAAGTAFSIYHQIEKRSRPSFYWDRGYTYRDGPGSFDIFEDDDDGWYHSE

[4] = target: T4, MNV NS3 (murine norovirus MNV-1 (strain CW1)) (UniProt Q80J95)
T4 sequence: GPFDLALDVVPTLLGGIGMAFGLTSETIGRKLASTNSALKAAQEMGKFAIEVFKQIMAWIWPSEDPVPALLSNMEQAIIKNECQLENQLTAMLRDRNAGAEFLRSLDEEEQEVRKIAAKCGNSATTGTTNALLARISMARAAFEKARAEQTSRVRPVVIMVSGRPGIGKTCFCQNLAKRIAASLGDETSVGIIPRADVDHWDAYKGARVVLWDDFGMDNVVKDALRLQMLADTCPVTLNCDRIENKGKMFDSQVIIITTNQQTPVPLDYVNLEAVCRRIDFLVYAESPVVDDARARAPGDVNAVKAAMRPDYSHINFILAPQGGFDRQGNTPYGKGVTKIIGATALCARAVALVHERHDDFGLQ

[5] = target: MNV minor capsid protein VP2 (murine norovirus MNV-1 (strain CW1))

Molecule	binding [1]	binding [2]	binding [3]	binding [4]	binding [5]
MNV minor capsid protein VP2 (murine norovirus MNV-1 (strain CW1))	no binding	no binding	no binding	no binding	–
MNV NS6 (enzyme, UniProt Q80J95 995-1177) APVSIWSRVVQFGTGWGFWVSGHVFITAKHVAPPKGTEIFGRKPGDFTVTSSGDFLKYYFTSAVRPDIPAMVLENGCQEGVVASVLVKRASGEMLALAVRMGSQAAIKIGSAVVHGQTGMLLTGSNAKAQDLGTIPGDCGCPYVYKKGNTWVVIGVHVAATRSGNTVIAATHGEPTLEALEFQ	–	–	–	–	no binding
